The inconclusive results got no clear call from the source; some entries with a clear call stand among them for comparison. A potency beside an inconclusive call is a rough fit, not a confirmed value. The source made the active and inactive calls. How the source made its calls: active means hit-call score of the fitted dose curve at least 0.9, where 1 is the maximum; inconclusive means response in the unintended direction; inactive means score below 0.9.
molecular target: Bile acid receptor (Homo sapiens) (UniProt Q96RI1); assay: NVS_NR_hFXR_Antagonist: NovaScreen (NVS) Nuclear Receptor Binding Assay for human Farnesoid X Receptor Antagonism (FXR) (AID 2283350)
Method: NVS_NR_hFXR_Antagonist is a biochemical, single-readout assay that uses extracted gene-proteins in a cell-free assay. Measurements were taken 1 hour after chemical dosing in a 384-well plate.NVS_NR_hFXR_Antagonist is one of one assay component(s) measured or calculated from the NVS_NR_hFXR_Antagonist assay. It is designed to make measurements of fluorescent resonance energy transfer, a form of binding reporter, as detected with fluorescent resonance energy transfer signals by Time-Resolved Fluorescence Resonance Energy Transfer (TR-FRET) technology.Data from the assay component NVS_NR_hFXR_Antagonist was analyzed into 1 assay endpoint. This assay endpoint, NVS_NR_hFXR_Antagonist, was analyzed in the positive analysis fitting direction relative to DMSO as the negative control and baseline of activity. Using a type of binding reporter, loss-of-signal activity can be used to understand changes in the binding as they relate to the gene NR1H4. Furthermore, this assay endpoint can be referred to as a primary readout, because the performed assay has only produced 1 assay endpoint. To generalize the intended target to other relatable targets, this assay endpoint is annotated to the nuclear receptor intended target family, where the subfamily is non-steroidal.
Binding assays used specific radioligands (tritiated, iodinated) with non-radioactive competitive displacement ligands in agonist or antagonist protocols (as indicated) and various reference compounds and inhibitors to titrate specific binding to receptors and transporters. Most enzyme assays (CYPs, kinases, phosphatases, proteases, HDACs) used recombinant protein and specific substrates (fluorescence mostly, some colorimetric and radioactive) and inhibitors, followed by a biochemical separation of substrate and product. All assays for the biochemical HTS were initially run in duplicate at a single concentration (10 uM for CYP450 assays and 25 uM for all others). […] Each assay was run with positive and negative controls, and concurrent controls on every plate. The follow-up (secondary) screen tested active chemical-pairs in concentration series, as well as a few additional assays not tested in the primary screen, some selected negative inactives, and several cases re-run in the concentration series for confirmatory purposes.

Sequences of proteins named here, by UniProt entry; tags and fusion partners are left off. A change or cut given only in a name is not applied to a line headed by its entry.
UniProt Q96RI1: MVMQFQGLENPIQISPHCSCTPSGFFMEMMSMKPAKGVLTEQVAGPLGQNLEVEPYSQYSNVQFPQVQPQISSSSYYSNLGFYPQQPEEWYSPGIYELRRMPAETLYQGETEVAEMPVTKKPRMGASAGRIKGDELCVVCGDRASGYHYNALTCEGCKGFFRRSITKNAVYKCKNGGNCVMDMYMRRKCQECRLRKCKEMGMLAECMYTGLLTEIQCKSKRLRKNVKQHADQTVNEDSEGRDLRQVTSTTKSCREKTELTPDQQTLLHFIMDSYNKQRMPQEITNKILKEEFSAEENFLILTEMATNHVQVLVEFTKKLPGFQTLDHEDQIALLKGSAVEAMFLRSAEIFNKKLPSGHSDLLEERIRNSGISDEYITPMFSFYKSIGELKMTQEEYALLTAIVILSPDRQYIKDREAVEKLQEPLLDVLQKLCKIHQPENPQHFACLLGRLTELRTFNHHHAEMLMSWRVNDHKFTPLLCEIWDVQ

Structure (SMILES)	AC50	outcome
CCCCCCCCCCCCc1ccccc1S(=O)(=O)O	active: 12.2 µM	
COCC(C)OCC(C)O (stereo not given)	inconclusive: 36.4 µM	
O=C(Oc1ccccc1)c1cccc(C(=O)Oc2ccccc2)c1	inconclusive: 47.6 µM	
C=CCc1cc(S(=O)(=O)c2ccc(O)c(CC=C)c2)ccc1O	active: 18.2 µM	
CC(C)=CCC/C(C)=C\CO		inactive
Cc1ccc(Cl)cc1		inactive
CCN(CC)C(=S)SSC(=S)N(CC)CC	inconclusive: 25 µM	
Nc1nc(Cl)nc2c1ncn2[C@H]1C[C@H](O)[C@@H](CO)O1	inconclusive: 0.0766 µM	
Nc1cccc2c(N)cccc12	inconclusive: 10.4 µM	
O=C(O)Cc1cc(I)c(Oc2ccc(O)c(I)c2)c(I)c1	active: 40.3 µM	

From PubChem BioAssay (EPA / NIEHS)
